PubChem BioAssay AID1259254, NCATS | 2017
Shown is an unselected part of about 59,000 reagents tested. About 1,550 of all reagents (2.6%) count as active. 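G2 share is only a proxy for re-replication; each gene was hit by three separate siRNAs, and active genes were retested.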 Reagents against one gene are numbered here. Not all columns of the deposit are shown. Reagent sequences are not shown. Not given: the amount of reagent.

Assay: 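Gene knock-downs that lead to re-replication, shown by excess G2 DNA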 (primary screen)
System: human HCT116 colorectal cancer cells
Reagents: single siRNA against human genes
Timing: 3 days
Measurement: 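Nuclei stained with Hoechst and imaged; cell-cycle phase assigned by DNA content; G2 share scaled per plate, non-targeting siRNA 0%, GMNN siRNA 100%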
Reading the numbers: G2 robust z-score: higher = more G2 cells, more excess DNA replication
Hit rule: 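An siRNA counts as active if its G2 robust z-score lies at least 5 MADs above the screen median; here such calls match roughly 38% of GMNN control or more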

Gene | reagent no. | G2 robust z-score | Call
SPHKAP (SPHK1 interactor, AKAP domain containing) | 1 | 2.79 | inactive
SPHKAP (SPHK1 interactor, AKAP domain containing) | 2 | 1.94 | inactive
SPHKAP (SPHK1 interactor, AKAP domain containing) | 3 | 0.282 | inactive
SLC38A10 | 1 | -0.24 | inactive
SLC38A10 | 2 | 3.46 | inactive
SLC38A10 | 3 | 1.42 | inactive
POU2AF2 (POU class 2 homeobox associating factor 2) | 1 | 0.145 | inactive
POU2AF2 (POU class 2 homeobox associating factor 2) | 2 | -0.21 | inactive
POU2AF2 (POU class 2 homeobox associating factor 2) | 3 | -0.0879 | inactive
BAG2 (BAG cochaperone 2) | 1 | -0.616 | inactive
BAG2 (BAG cochaperone 2) | 2 | 2.49 | inactive
BAG2 (BAG cochaperone 2) | 3 | -0.61 | inactive
CA8 (carbonic anhydrase 8 (inactive)) | 1 | 7.07 | active
CA8 (carbonic anhydrase 8 (inactive)) | 2 | -0.624 | inactive
CA8 (carbonic anhydrase 8 (inactive)) | 3 | 0.585 | inactive
ADAMTS16 (ADAM metallopeptidase with thrombospondin type 1 motif 16) | 1 | 0.237 | inactive
ADAMTS16 (ADAM metallopeptidase with thrombospondin type 1 motif 16) | 2 | 0.0818 | inactive
ADAMTS16 (ADAM metallopeptidase with thrombospondin type 1 motif 16) | 3 | -0.71 | inactive
PNKD (PNKD metallo-beta-lactamase domain containing) | 1 | 4.79 | inactive
PNKD (PNKD metallo-beta-lactamase domain containing) | 2 | -0.667 | inactive
PNKD (PNKD metallo-beta-lactamase domain containing) | 3 | 0.48 | inactive
RPL19 (ribosomal protein L19) | 1 | 4.18 | inactive
RPL19 (ribosomal protein L19) | 2 | 2.71 | inactive
RPL19 (ribosomal protein L19) | 3 | 1.86 | inactive
THYN1 (thymocyte nuclear protein 1) | 1 | -0.316 | inactive
THYN1 (thymocyte nuclear protein 1) | 2 | 0.668 | inactive
THYN1 (thymocyte nuclear protein 1) | 3 | -0.326 | inactive

Called active (from the list above):
Gene | reagent no. | G2 robust z-score | Call
CA8 (carbonic anhydrase 8 (inactive)) | 1 | 7.07 | active

Continued:
Gene | reagent no. | G2 robust z-score | Call
CHMP4C (charged multivesicular body protein 4C) | 1 | -0.838 | inactive
CHMP4C (charged multivesicular body protein 4C) | 2 | -0.265 | inactive
CHMP4C (charged multivesicular body protein 4C) | 3 | -0.789 | inactive
CDC73 (cell division cycle 73) | 1 | -0.715 | inactive
CDC73 (cell division cycle 73) | 2 | -0.629 | inactive
CDC73 (cell division cycle 73) | 3 | -0.789 | inactive
PLAC9P1 (placenta associated 9 pseudogene 1) | 1 | -0.979 | inactive
PLAC9P1 (placenta associated 9 pseudogene 1) | 2 | -0.109 | inactive
PLAC9P1 (placenta associated 9 pseudogene 1) | 3 | -0.206 | inactive
STX2 (syntaxin 2) | 1 | 1.03 | inactive
STX2 (syntaxin 2) | 2 | -1.11 | inactive
STX2 (syntaxin 2) | 3 | -0.202 | inactive
KIAA1755 | 1 | -0.583 | inactive
KIAA1755 | 2 | -0.958 | inactive
KIAA1755 | 3 | -0.527 | inactive
TAS2R13 (taste 2 receptor member 13) | 1 | 4.07 | inactive
TAS2R13 (taste 2 receptor member 13) | 2 | 0.478 | inactive
TAS2R13 (taste 2 receptor member 13) | 3 | 1.53 | inactive
GPR137B (G protein-coupled receptor 137B) | 1 | -0.884 | inactive
GPR137B (G protein-coupled receptor 137B) | 2 | -0.401 | inactive
GPR137B (G protein-coupled receptor 137B) | 3 | 0.966 | inactive
